Assay results from patent US20220211037A1, “BIOSENSORS FOR DROUGHT STRESS IN PLANTS” (The Regents of the University of California, priority 2019, published 2022).
Results are given in words; binding and its absence hold for the method and conditions named. Some results given as binding are weak or reduced against the parent protein; the word gives no strength.

How the values were obtained:
[1] = biological target: abscisic acid receptor pyrabactin resistance 1 like protein PYL3 (Arabidopsis thaliana) (UniProt Q9SSM7); assay: static light scattering, average molar mass against ABA concentration
[2] = biological target: abscisic acid receptor pyrabactin resistance 1 like protein PYL3 (Arabidopsis thaliana) (UniProt Q9SSM7); assay: comparison with unconjugated PYL3
[3] = biological target: abscisic acid receptor pyrabactin resistance 1 like protein PYL3 (Arabidopsis thaliana) (UniProt Q9SSM7); assay: static light scattering, 1.9 µM protein, increasing ABA

binding [1]: binds
binding [2]: binds
binding [3]: binds
B1: abscisic acid receptor pyrabactin resistance 1 like protein PYL3 (receptor)
chain: MNLAPIHDPSSSSTTTTSSSTPYGLTKDEFSTLDSIIRTHHTFPRSPNTCTSLIAHRVDAPAHAIWRFVRDFANPNKYKHFIKSCTIRVNGNGIKEIKVGTIREVSVVSGLPASTSVEILEVLDEEKRILSFRVLGGEHRLNNYRSVTSVNEFVVLEKDKKKRVYSVVLESYIVDIPQGNTEEDTRMFVDTVVKSNLQNLAVISTASPT
